# Results reported in paper PMC7580532.
# No constants are given. Whether binding was seen depends on the method and setting. Binding seen in cells or lysates may run through a third protein. Some results given as binding are weak or reduced against the parent protein; the word gives no strength.
# Tests used:
# [1] = molecular target: T1, syntaxin-binding protein-2 (STXBP2), wild type (human (endogenous in PBMCs)) (UniProt Q15833); experiment: co-IP; endogenous STXBP2 immunoprecipitated from cell lysates (H.C. or patient) with anti-STXBP2 antibody coupled to agarose beads (Pierce CO-IP kit), 20 h at 4°C; lysis buffer 25 mM Tris, 150 mM NaCl, 1 mM EDTA, 5% glycerol, pH 7.4, 1% NP-40; five washes; elution at pH 2.8; Western blot
# T1 sequence: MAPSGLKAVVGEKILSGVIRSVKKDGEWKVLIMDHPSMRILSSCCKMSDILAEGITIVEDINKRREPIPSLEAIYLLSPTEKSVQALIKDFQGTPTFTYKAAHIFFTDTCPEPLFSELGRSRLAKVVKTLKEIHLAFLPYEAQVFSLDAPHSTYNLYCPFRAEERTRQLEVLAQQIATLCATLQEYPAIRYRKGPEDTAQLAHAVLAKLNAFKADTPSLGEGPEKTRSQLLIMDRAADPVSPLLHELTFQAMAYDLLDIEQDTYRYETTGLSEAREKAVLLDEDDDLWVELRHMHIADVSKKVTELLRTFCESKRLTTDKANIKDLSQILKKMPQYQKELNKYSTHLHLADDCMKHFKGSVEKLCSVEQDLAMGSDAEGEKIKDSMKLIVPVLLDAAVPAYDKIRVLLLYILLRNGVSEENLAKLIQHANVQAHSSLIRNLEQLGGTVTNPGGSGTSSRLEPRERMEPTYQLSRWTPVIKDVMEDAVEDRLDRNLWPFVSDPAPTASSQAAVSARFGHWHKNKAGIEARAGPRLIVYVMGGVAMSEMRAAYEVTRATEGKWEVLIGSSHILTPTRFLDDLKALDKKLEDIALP
# [2] = molecular target: T2, STXBP2-R190C variant (p.Arg190Cys, c.568C>T) (human (endogenous in PBMCs)) (UniProt Q15833); experiment: as above
# T2 sequence: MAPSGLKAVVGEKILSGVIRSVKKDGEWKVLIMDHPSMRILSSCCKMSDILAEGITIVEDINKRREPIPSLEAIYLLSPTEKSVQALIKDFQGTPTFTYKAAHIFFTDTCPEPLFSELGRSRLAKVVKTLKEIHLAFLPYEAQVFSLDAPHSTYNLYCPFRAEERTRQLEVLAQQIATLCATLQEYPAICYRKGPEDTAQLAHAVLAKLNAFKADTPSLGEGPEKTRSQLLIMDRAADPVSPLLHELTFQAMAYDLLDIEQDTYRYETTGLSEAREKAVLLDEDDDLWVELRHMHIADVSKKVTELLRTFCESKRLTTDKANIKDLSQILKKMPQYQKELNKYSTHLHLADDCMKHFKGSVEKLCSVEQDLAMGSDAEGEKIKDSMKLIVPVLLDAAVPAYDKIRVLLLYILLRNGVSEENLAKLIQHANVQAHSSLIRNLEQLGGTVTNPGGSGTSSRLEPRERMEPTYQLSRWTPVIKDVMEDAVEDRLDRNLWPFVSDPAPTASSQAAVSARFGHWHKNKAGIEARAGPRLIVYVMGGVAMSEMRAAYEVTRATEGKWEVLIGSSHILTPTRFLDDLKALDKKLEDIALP
Binder,binding [1],binding [2]
"syntaxin-11 (STX11) (protein, UniProt O75558 1-287) MKDRLAELLDLSKQYDQQFPDGDDEFDSPHEDIVFETDHILESLYRDIRDIQDENQLLVADVKRLGKQNARFLTSMRRLSSIKRDTNSIAKAIKARGEVIHCKLRAMKELSEAAEAQHGPHSAVARISRAQYNALTLTFQRAMHDYNQAEMKQRDNCKIRIQRQLEIMGKEVSGDQIEDMFEQGKWDVFSENLLADVKGARAALNEIESRHRELLRLESRIRDVHELFLQMAVLVEKQADTLNVIELNVQKTVDYTGQAKAQVRKAVQYEEKNPCRTLCCFCCPCLK",binds,binds
"STX3 (protein, UniProt Q13277 1-289) MKDRLEQLKAKQLTQDDDTDAVEIAIDNTAFMDEFFSEIEETRLNIDKISEHVEEAKKLYSIILSAPIPEPKTKDDLEQLTTEIKKRANNVRNKLKSMEKHIEEDEVRSSADLRIRKSQHSVLSRKFVEVMTKYNEAQVDFRERSKGRIQRQLEITGKKTTDEELEEMLESGNPAIFTSGIIDSQISKQALSEIEGRHKDIVRLESSIKELHDMFMDIAMLVENQGEMLDNIELNVMHTVDHVEKARDETKKAVKYQSQARKKLIIIIVLVVVLLGILALIIGLSVGLN",binds,binds
